Only a part is listed here, and it is no random draw. Single values of this set are uncertain.
Compound: COC(=O)/C=C/c1ccccc1 [methyl cinnamate]
Assay: log2 ratio of iodoacetamide-alkyne labeling of the cysteine site, DMSO over compound (competition); higher = stronger covalent engagement of the cysteine by the compound, active = 1 or more
Details: 500 µM; treatment time 1 h; system: HEK293T cell lysate
Outline: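 Three replicates, each with duplicate channels, were prepared from HEK293T lysate (2 mg/mL) treated with vehicle or electrophile at 500 µM for 1 h at ambient temperature. Iodoacetamide alkyne was then applied for 1 h, and samples were clicked to sCIP-TMT reagents, pooled, trypsin-digested overnight at 37 °C, enriched on streptavidin, acid-eluted and analysed on Orbitrap Eclipse LC-MS/MS with FAIMS, with FragPipe quantification. The log2 competition ratio per cysteine is the mean control-channel divided by the mean compound-channel reporter intensity. Cysteines quantified in only one replicate were left out.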

The chains behind the UniProt entries cited, without tags or fusion partners. Where a name states a change or a piece, a line headed by the entry shows the natural chain unless it says otherwise.
UniProt O75643, whole entry, looked up: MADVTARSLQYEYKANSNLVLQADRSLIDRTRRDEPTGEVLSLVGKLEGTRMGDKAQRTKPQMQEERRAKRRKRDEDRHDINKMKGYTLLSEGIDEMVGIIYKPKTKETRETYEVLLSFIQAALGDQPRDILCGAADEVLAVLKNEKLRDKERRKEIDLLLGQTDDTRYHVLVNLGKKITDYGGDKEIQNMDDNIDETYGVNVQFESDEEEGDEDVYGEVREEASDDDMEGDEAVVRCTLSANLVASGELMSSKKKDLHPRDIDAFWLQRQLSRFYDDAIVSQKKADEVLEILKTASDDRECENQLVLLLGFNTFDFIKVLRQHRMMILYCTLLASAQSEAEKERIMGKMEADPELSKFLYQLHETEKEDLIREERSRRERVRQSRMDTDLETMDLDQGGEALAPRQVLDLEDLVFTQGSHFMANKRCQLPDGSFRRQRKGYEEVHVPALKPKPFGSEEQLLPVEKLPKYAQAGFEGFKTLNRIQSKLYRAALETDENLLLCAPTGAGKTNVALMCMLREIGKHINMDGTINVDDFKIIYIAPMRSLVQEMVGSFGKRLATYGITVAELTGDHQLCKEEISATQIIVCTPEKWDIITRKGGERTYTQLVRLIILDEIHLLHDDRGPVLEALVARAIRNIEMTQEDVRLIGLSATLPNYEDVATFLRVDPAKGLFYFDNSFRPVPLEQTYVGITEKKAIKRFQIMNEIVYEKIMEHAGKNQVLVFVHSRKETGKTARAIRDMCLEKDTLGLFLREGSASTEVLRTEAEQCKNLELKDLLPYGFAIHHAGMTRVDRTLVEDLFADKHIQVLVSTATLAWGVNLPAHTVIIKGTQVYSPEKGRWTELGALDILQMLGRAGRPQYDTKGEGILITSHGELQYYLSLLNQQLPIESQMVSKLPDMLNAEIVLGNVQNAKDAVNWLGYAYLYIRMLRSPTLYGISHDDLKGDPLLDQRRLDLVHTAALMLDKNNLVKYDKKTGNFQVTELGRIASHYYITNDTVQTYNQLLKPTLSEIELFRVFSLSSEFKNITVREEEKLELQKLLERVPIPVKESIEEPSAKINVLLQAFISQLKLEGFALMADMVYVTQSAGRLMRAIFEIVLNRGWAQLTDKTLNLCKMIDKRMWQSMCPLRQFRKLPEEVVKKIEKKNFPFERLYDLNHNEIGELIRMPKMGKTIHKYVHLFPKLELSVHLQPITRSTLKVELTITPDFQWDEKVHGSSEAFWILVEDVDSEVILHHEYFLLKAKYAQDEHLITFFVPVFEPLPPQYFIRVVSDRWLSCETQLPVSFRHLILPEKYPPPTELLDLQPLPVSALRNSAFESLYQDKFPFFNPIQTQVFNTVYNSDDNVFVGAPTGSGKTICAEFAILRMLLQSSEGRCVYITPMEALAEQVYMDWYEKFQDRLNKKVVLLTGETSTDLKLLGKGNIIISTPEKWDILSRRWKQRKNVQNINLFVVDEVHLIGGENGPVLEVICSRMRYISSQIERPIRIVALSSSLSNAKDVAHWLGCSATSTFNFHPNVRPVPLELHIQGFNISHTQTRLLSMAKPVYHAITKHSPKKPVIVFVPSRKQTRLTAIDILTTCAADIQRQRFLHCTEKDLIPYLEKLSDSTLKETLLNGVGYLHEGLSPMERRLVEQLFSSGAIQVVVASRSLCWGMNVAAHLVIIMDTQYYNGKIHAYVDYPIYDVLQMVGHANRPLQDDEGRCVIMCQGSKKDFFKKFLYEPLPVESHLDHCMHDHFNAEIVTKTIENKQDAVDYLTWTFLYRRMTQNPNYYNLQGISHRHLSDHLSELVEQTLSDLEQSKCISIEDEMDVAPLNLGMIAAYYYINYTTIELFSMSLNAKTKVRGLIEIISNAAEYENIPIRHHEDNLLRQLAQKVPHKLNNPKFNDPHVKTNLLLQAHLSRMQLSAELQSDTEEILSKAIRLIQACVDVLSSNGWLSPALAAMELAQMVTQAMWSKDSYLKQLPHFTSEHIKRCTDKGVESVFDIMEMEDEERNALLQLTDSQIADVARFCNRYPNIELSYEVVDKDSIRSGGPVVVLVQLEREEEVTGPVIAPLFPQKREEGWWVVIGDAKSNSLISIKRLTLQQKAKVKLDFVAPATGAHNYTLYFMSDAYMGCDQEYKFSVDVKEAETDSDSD
UniProt O76003: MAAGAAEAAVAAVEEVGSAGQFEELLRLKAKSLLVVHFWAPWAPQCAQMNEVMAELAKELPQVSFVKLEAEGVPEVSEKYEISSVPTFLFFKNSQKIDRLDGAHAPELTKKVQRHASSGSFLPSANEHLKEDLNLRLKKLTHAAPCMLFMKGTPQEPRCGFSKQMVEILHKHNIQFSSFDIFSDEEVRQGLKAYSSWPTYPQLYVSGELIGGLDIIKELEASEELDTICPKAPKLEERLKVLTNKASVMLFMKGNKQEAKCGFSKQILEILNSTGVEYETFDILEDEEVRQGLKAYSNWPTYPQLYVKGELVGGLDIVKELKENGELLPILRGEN
UniProt O75369, whole entry, looked up: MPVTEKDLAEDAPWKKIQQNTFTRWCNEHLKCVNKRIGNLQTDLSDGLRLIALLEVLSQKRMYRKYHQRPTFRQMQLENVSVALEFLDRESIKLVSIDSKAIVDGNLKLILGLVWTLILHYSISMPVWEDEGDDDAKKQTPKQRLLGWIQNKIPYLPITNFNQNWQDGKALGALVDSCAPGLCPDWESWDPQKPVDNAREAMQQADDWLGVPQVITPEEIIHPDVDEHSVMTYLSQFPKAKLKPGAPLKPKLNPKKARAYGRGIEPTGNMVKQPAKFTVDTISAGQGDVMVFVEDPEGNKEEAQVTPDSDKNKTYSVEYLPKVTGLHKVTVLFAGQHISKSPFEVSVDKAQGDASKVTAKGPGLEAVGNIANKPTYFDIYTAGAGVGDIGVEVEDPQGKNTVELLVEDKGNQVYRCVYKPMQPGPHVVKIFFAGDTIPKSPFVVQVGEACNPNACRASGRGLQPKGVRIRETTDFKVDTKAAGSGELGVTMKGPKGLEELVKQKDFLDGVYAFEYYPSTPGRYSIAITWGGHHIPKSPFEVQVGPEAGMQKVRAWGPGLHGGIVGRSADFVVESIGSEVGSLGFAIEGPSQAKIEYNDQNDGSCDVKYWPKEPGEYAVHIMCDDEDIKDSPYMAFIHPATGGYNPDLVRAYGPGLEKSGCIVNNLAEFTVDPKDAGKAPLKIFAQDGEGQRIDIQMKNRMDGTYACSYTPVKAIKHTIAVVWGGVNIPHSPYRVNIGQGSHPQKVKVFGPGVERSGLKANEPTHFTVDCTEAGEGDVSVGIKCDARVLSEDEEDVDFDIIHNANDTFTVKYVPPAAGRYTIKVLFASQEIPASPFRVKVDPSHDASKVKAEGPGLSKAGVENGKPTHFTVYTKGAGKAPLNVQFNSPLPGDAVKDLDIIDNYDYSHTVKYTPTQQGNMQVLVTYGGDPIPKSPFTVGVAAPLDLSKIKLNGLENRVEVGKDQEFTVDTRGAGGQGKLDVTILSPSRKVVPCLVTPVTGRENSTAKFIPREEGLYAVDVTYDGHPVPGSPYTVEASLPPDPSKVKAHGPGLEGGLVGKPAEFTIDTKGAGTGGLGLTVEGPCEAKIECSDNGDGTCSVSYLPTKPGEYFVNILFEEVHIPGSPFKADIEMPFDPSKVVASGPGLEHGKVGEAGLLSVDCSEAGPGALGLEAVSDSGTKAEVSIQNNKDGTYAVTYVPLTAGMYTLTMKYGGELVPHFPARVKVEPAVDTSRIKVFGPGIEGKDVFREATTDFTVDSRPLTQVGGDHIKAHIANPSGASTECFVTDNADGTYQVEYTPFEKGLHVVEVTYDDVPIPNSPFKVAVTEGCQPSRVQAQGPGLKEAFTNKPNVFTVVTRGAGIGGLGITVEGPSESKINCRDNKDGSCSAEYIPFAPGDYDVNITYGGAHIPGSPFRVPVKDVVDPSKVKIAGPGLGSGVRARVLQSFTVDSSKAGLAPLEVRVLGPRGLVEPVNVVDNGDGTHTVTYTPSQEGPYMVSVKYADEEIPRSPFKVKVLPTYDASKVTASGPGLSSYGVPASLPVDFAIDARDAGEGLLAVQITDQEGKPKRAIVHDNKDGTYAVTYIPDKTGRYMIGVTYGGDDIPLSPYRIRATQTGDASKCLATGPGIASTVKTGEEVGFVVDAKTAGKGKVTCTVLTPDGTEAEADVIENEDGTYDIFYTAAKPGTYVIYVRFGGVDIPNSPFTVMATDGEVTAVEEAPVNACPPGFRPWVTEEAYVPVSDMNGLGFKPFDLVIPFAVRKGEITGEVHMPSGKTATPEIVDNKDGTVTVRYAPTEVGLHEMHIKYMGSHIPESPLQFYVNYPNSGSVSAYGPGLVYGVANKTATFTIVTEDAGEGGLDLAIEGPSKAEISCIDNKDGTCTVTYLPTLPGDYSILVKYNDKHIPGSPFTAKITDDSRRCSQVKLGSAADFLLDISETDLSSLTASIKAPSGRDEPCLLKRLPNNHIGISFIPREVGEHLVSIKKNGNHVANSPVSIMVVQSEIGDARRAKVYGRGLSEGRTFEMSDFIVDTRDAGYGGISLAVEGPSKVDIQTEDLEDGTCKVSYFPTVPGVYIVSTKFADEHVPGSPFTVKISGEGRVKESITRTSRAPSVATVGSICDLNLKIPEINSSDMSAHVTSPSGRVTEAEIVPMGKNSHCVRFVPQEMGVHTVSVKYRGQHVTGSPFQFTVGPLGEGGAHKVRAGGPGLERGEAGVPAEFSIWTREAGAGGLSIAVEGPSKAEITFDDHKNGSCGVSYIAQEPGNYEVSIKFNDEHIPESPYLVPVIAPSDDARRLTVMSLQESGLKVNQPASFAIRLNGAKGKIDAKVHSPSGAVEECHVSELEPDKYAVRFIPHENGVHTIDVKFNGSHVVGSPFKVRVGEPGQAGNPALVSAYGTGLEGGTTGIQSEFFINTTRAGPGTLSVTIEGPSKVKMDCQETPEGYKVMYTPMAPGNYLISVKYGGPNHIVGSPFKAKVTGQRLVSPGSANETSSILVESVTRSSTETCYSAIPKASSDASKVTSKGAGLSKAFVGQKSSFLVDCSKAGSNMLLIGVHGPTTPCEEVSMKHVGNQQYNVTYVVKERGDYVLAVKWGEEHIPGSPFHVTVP
UniProt O60343: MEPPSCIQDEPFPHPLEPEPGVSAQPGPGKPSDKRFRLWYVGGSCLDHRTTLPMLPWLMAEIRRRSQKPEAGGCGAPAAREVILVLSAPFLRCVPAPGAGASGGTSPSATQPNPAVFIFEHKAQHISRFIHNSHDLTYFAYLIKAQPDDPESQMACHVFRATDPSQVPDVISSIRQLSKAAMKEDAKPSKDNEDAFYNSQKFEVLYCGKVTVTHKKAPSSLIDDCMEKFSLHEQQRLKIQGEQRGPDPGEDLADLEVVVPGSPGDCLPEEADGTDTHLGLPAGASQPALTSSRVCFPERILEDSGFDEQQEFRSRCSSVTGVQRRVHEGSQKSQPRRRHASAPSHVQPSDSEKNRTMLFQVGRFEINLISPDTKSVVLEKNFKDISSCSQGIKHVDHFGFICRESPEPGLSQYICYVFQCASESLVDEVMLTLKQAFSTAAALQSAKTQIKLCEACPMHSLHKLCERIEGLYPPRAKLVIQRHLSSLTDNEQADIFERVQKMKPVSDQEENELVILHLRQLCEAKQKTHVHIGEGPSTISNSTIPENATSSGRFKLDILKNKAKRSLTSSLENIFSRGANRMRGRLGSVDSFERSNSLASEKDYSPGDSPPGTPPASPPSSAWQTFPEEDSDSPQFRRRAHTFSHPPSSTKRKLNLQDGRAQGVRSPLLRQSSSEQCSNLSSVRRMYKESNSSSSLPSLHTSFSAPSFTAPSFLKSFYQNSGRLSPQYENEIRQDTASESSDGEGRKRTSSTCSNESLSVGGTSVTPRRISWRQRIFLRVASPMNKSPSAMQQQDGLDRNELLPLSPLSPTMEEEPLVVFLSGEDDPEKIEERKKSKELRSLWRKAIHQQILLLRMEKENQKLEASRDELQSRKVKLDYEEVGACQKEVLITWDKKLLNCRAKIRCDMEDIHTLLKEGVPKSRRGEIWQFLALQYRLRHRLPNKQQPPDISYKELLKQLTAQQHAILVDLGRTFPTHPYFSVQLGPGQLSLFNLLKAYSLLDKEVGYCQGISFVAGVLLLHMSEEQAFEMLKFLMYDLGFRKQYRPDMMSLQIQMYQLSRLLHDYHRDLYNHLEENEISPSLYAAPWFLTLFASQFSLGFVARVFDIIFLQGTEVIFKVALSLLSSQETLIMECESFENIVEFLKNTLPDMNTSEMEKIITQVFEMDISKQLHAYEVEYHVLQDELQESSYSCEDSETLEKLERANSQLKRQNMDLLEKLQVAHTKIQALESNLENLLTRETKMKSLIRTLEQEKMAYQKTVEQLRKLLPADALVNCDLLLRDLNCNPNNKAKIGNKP
UniProt O75446: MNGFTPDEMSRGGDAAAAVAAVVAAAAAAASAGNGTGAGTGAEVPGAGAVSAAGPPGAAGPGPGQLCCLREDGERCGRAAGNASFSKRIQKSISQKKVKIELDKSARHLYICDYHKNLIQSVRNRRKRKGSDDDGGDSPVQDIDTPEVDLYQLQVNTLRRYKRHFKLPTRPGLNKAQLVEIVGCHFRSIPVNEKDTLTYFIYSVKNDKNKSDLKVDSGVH

| Target | log2 ratio of iodoacetamide-alkyne labeling |
| --- | --- |
| SNRNP200 C1278 (UniProt O75643) | inactive: 0.0377 |
| SRGAP2 C893 (UniProt O75044) | inactive: 0.218 |
| GLRX3 C229 (UniProt O76003) | inactive: 0.162 |
| SNRNP200 C133 (UniProt O75643) | inactive: -0.0688 |
| UTP20 C1757 (UniProt O75691) | inactive: 0.0427 |
| FLNB C2556 (UniProt O75369) | inactive: -0.0432 |
| SRGAP2 C820 (UniProt O75044) | inactive: 0.212 |
| UniProt O60232_C53 | inactive: 0.238 |
| RSL1D1 C96 (UniProt O76021) | inactive: 0.346 |
| AKAP8 C631 (UniProt O43823) | inactive: 0.0512 |
| TBC1D4 C266 (UniProt O60343) | inactive: 0.579 |
| SAP30 C184 (UniProt O75446) | inactive: 0.453 |
| RPP40 C49 (UniProt O75818) | inactive: -0.146 |
| UniProt O75947_C101 | inactive: 0.152 |
| NUP155 C704 (UniProt O75694) | inactive: 0.225 |
| LRCH4 C105 (UniProt O75427) | inactive: 0.256 |
| NME6 C167 (UniProt O75414) | inactive: 0.153 |
| TSC22D2 C158 (UniProt O75157) | inactive: 0.141 |
| AKAP8 C139 (UniProt O43823) | inactive: 0.135 |

| Target | log2 ratio of iodoacetamide-alkyne labeling |
| --- | --- |
| KPNA6 C208 (UniProt O60684) | inactive: 0.0569 |
| TBC1D4 C753 (UniProt O60343) | inactive: 0.36 |
| SURF6 C19 (UniProt O75683) | inactive: 0.583 |
| SF3B1 C1059 (UniProt O75533) | inactive: -0.278 |
| UniProt O75521_C380 | inactive: 0.15 |
| NPM3 C70 (UniProt O75607) | inactive: 0.112 |
| UniProt O75521_C282 | inactive: 0.0485 |
| ROCK2 C330 (UniProt O75116) | inactive: 0.252 |
| SF3B1 C933 (UniProt O75533) | inactive: 0.183 |
| PSMD10 C107 (UniProt O75832) | inactive: 0.229 |
| FLNB C2248 (UniProt O75369) | inactive: -0.613 |
| UniProt O60664_C39 | inactive: 0.0101 |
| SNRNP200 C1580 (UniProt O75643) | inactive: 0.0837 |
| FLNB C2501 (UniProt O75369) | inactive: 0.349 |
| TBC1D4 C316 (UniProt O60343) | inactive: 0.213 |
| AKAP8 C173 (UniProt O43823) | inactive: 0.261 |
| CLPX C538 (UniProt O76031) | inactive: -0.123 |
| ZC3H11A C209 (UniProt O75152) | inactive: 0.435 |
| TBC1D4 C1277 (UniProt O60343) | inactive: 0.221 |

Two entries picked at random from the list so far:

| Target | log2 ratio of iodoacetamide-alkyne labeling |
| --- | --- |
| FLNB C2501 (UniProt O75369) | inactive: 0.349 |
| SURF6 C19 (UniProt O75683) | inactive: 0.583 |
